Measured values as given in the supplement of paper PMC11006884.
This list holds what a sample rich in targets with a hit left over. The data scatter; read single values as rough. This is a selection; strong and weak results do not stand in their true shares.

Protein sequences, listed by entry. Tags and fused reporters are not part of them. Lines headed by an entry give the natural chain unless they say otherwise; changes in a name come on top.
UniProt Q6PI26: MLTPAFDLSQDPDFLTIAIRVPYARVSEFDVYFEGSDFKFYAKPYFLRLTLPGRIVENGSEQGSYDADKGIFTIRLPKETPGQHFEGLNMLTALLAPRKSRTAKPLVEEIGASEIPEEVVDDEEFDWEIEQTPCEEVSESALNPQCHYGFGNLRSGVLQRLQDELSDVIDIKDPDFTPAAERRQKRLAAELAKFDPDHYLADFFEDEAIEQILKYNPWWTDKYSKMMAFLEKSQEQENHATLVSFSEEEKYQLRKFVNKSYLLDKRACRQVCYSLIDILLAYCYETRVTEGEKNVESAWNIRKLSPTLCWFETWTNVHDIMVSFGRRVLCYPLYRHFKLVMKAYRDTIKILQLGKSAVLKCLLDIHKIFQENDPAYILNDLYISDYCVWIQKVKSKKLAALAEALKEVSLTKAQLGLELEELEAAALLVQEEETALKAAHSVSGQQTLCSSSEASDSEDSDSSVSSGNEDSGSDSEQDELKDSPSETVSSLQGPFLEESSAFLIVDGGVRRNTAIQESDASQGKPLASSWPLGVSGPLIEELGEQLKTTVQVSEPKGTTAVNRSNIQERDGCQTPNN
UniProt Q5VZ89: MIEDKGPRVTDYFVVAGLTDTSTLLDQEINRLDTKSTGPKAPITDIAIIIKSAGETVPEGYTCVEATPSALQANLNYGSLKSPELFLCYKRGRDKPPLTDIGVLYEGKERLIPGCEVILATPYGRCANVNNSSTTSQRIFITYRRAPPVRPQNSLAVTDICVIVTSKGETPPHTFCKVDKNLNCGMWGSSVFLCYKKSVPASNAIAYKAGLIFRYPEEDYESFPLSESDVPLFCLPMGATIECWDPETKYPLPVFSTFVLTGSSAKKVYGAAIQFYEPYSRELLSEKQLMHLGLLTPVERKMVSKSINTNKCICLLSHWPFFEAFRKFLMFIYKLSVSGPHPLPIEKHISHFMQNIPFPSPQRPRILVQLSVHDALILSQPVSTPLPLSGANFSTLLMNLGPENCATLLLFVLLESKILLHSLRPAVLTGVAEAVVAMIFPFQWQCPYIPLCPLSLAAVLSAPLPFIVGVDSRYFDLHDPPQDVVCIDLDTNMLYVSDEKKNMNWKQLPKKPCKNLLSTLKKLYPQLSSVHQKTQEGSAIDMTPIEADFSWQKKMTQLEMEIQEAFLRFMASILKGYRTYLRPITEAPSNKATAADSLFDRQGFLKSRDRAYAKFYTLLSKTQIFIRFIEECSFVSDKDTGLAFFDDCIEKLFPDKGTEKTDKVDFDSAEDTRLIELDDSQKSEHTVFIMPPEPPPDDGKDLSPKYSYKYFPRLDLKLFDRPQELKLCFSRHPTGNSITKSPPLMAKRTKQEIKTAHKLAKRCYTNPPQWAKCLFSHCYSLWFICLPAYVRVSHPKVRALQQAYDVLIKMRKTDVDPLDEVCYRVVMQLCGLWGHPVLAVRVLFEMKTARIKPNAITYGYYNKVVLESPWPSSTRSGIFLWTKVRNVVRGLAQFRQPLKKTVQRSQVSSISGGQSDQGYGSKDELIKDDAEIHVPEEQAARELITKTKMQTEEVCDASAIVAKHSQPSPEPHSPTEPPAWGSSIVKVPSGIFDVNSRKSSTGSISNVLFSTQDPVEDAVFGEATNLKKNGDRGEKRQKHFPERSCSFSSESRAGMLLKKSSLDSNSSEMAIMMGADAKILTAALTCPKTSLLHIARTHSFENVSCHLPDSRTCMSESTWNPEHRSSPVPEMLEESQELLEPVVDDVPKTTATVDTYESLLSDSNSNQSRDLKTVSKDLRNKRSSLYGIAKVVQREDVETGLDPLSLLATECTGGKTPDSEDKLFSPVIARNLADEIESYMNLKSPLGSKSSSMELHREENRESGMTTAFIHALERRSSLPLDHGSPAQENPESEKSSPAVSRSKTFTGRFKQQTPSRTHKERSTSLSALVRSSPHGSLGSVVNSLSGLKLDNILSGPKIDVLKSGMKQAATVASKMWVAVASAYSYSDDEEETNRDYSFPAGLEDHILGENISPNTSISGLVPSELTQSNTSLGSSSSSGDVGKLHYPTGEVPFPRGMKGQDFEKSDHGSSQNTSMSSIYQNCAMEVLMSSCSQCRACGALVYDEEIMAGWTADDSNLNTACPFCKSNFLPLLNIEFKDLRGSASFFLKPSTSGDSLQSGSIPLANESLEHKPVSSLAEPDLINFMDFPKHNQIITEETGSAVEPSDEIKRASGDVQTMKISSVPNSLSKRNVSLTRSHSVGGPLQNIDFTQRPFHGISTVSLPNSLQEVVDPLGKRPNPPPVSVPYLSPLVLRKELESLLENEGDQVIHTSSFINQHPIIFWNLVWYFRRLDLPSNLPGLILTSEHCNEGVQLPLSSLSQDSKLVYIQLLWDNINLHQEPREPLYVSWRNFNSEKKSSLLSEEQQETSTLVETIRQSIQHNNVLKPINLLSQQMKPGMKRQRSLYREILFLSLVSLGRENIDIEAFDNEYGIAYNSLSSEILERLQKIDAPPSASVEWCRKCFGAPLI
UniProt Q6P9B6: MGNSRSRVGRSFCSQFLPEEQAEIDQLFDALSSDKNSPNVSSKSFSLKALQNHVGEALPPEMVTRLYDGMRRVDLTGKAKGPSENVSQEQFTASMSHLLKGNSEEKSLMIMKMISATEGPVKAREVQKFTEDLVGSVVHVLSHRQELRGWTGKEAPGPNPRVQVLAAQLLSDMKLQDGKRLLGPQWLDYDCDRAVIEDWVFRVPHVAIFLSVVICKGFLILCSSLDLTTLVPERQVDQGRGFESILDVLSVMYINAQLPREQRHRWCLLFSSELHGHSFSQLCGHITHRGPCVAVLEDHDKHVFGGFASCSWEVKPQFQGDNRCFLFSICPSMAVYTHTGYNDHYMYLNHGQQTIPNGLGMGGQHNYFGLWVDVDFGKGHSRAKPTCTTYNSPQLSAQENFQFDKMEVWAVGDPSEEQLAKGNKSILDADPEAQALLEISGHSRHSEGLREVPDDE
UniProt Q6KC79: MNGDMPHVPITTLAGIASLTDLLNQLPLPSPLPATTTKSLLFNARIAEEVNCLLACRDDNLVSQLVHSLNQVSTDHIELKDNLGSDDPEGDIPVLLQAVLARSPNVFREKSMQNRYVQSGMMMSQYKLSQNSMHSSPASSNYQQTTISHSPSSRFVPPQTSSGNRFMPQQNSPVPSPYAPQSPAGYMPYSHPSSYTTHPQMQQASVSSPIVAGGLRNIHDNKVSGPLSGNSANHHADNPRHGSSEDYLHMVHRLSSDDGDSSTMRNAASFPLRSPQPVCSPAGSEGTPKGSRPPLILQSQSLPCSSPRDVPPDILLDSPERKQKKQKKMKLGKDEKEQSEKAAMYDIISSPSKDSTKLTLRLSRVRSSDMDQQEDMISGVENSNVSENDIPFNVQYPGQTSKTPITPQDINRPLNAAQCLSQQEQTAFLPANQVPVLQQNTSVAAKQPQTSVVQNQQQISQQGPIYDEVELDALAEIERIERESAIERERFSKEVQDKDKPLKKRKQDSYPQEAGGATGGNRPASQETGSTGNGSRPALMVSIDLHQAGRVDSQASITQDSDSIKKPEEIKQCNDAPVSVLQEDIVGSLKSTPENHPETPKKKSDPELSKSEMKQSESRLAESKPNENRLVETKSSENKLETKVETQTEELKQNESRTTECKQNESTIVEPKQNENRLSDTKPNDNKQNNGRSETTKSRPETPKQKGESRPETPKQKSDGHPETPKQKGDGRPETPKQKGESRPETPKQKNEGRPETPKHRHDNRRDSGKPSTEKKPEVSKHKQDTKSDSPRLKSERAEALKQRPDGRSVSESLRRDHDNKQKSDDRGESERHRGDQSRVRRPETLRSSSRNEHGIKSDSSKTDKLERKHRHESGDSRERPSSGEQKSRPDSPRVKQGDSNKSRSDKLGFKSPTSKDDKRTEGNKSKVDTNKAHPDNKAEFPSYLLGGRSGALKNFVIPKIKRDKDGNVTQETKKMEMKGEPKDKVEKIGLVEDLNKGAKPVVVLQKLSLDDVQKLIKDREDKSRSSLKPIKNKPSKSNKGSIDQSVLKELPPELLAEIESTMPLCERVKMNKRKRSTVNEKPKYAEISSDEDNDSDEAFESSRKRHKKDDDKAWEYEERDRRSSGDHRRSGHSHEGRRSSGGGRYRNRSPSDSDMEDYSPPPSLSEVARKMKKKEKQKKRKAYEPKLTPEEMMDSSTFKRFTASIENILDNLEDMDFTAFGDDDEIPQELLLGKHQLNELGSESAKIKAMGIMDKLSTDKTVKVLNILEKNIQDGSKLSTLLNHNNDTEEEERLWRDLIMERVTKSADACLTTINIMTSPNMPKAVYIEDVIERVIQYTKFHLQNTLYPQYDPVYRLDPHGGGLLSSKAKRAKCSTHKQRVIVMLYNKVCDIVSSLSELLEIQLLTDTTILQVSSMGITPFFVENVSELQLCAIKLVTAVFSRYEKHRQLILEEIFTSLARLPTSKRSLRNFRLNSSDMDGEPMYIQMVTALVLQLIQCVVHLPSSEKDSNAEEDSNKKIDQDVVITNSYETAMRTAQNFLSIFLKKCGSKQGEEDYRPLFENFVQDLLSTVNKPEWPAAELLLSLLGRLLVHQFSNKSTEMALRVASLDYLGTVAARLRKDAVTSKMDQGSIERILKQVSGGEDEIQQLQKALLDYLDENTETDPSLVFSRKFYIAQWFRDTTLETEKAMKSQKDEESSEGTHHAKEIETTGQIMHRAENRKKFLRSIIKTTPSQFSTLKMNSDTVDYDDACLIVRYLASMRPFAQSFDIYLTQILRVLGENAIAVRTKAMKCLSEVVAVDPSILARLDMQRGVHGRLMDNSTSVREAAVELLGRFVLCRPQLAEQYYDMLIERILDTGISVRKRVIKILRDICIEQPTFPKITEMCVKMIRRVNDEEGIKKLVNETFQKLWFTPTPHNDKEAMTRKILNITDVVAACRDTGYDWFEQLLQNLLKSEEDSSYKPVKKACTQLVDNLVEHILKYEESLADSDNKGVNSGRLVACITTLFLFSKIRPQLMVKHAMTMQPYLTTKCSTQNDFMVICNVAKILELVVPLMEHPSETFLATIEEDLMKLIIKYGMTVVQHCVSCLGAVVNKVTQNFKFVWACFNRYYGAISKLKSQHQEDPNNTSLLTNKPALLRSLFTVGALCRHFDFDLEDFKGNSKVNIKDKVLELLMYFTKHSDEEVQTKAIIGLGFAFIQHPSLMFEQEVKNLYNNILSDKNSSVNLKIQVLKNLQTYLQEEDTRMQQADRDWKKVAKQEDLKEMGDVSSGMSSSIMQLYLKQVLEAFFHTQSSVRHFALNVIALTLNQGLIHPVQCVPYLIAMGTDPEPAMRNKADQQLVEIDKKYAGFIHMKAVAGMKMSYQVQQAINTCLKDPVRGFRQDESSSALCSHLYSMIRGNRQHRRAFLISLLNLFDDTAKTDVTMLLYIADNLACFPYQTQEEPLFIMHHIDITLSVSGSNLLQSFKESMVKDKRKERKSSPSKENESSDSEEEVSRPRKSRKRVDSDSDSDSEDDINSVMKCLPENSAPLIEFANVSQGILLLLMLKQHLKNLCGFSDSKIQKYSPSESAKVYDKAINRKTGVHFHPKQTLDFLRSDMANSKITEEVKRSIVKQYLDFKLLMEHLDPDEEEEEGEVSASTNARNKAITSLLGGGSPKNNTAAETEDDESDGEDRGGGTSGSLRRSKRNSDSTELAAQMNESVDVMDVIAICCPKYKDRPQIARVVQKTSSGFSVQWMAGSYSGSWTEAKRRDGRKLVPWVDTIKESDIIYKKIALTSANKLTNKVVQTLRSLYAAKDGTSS
UniProt Q6AI12: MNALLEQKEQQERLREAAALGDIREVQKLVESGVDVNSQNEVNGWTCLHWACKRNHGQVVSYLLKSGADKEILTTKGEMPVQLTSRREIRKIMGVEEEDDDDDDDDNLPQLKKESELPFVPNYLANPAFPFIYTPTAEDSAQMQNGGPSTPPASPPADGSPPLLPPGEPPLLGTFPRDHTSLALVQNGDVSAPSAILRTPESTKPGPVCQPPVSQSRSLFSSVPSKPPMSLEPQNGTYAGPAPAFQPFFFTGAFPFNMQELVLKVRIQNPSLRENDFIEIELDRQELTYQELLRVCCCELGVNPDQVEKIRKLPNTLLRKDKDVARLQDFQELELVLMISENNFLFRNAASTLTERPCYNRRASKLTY

These targets were tested with COC(=O)/C=C/c1ccccc1 [methyl cinnamate] (assay: log2 ratio of iodoacetamide-alkyne labeling of the cysteine site, DMSO over compound (competition); higher = stronger covalent engagement of the cysteine by the compound, active = 1 or more). Settings: 500 µM; treatment time 1 h; system: HEK293T cell lysate.
Summary of the method: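 HEK293T lysate (2 mg/mL) was incubated with electrophile (500 µM) or vehicle for 1 h at ambient temperature and then with iodoacetamide alkyne for 1 h. Labelled proteins were clicked to sCIP-TMT reagents, pooled, digested, enriched on streptavidin and measured by Orbitrap Eclipse LC-MS/MS with FAIMS, with FragPipe quantification. The per-cysteine log2 competition ratio is mean control-channel reporter intensity over mean compound-channel reporter intensity. Across three replicates with duplicate channels, cysteines quantified in only one replicate were excluded.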
SHQ1 C572 (UniProt Q6PI26) was tested, and the “log2 ratio of iodoacetamide-alkyne labeling” value (“log2 ratio” for short) was inactive: 0.264.
RRP12 C31 (UniProt Q5JTH9) was tested, and the “log2 ratio” value was inactive: 0.182.
In the case of CAMSAP1 C1379 (UniProt Q5T5Y3), the “log2 ratio” value is reported as inactive: 0.636.
DENND4C C115 (UniProt Q5VZ89) was tested, and the “log2 ratio” value was inactive: -0.0198.
For ZMYM4 C1499 (UniProt Q5VZL5), the “log2 ratio” value was inactive: 0.188.
With NADSYN1 C428 (UniProt Q6IA69) the “log2 ratio” value was inactive: 0.136.
For UniProt Q6P9B6_C13, the “log2 ratio” value was inactive: 0.605.
GIGYF2 C938 (UniProt Q6Y7W6) was tested, and the “log2 ratio” value was inactive: 0.405.
In the case of NIPBL C419 (UniProt Q6KC79), the “log2 ratio” value is reported as inactive: 0.488.
In the case of EDC4 C81 (UniProt Q6P2E9), the “log2 ratio” value is reported as inactive: 0.656.
With RIF1 C1865 (UniProt Q5UIP0) the “log2 ratio” value was inactive: -0.0677.
For RIF1 C1139 (UniProt Q5UIP0), the “log2 ratio” value was inactive: -0.026.
NUP188 C1294 (UniProt Q5SRE5) was tested, and the “log2 ratio” value was inactive: 0.374.
With ANKRD40 C209 (UniProt Q6AI12) the “log2 ratio” value was inactive: 0.306.
With MBOAT2 C505 (UniProt Q6ZWT7) the “log2 ratio” value was inactive: 0.345.
For CWF19L1 C176 (UniProt Q69YN2), the “log2 ratio” value was inactive: -0.191.
